According to PMC13223278:
No constants are given. Whether binding was seen depends on the method and setting. Binding seen in cells or lysates may run through a third protein. Some binding calls cover weakened binding; strength is not graded here.

Amino acid sequences for entries named in this document (tags omitted). Residues count along the entry.
UniProt P40189, residues 23-918: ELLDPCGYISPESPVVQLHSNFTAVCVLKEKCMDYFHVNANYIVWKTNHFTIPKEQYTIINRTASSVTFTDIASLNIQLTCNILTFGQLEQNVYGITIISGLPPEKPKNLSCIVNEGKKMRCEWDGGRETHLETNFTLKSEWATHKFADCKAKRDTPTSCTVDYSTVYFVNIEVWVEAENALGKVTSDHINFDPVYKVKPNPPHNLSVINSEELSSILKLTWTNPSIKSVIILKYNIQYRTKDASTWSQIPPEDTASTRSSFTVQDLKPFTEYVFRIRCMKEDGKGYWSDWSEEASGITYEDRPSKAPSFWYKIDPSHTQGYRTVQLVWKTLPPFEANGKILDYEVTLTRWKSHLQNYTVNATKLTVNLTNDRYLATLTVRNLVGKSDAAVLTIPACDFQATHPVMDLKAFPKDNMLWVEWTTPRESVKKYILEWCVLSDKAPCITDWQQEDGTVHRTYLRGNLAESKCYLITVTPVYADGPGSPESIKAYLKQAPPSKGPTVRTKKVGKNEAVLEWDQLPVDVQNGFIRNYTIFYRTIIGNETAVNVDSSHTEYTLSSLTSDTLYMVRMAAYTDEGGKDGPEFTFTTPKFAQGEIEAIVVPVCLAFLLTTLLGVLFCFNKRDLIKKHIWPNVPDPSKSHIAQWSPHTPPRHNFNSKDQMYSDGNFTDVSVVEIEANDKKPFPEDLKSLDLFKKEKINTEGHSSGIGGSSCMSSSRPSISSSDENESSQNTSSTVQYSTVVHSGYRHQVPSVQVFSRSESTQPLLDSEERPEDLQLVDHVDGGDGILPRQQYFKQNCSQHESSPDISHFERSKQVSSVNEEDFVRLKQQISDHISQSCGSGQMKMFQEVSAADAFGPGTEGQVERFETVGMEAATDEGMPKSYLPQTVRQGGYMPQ
UniProt Q08334, residues 20-325: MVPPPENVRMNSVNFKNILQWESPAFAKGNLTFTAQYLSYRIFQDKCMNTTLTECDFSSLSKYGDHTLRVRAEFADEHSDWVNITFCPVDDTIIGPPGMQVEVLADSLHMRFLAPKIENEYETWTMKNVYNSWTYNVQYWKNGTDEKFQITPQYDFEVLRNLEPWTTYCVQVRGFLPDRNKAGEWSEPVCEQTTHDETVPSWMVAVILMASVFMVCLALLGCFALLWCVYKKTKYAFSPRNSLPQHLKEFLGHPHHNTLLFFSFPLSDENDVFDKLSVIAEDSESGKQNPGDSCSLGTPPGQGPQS

Key:
[1] = target: glycoprotein 130 (human (endogenous in OKF6/TERT-2)) (UniProt P40189); assay: proximity ligation; OKF6/TERT-2 cells on fibronectin-treated coverslips, fixed with 2% paraformaldehyde; two of the antibodies (goat anti-IL22RA, mouse anti-IL10RB, rabbit anti-gp130, 5 ug/ml each) in combination overnight at 4 °C; Duolink In Situ Red; confocal microscopy, average number of complexes per cell
[2] = target: glycoprotein 130 (human (endogenous in OKF6/TERT-2)) (UniProt P40189); assay: co-IP; OKF6/TERT-2 cells treated without or with 50 ng/ml human IL-22 for 3 h, cross-linked with 0.1 mM DSP for 30 min, lysed; 400 ug protein with 15 ug IL22RA1, IL10RB or gp130 antibody overnight at 4 °C; Protein A/G magnetic beads; SDS-PAGE

For “interleukin-10 receptor subunit beta (from UniProt Q08334 20-325)”, the binding [1] was “binds” and the binding [2] was “binds”.
